Source: article PMC7343241
No constants are given. Whether binding was seen depends on the method and setting. In cells and extracts the contact can be indirect. A result given as binding can be weak or reduced; the word gives no strength. For part of these data: Where a sequence is shown, tags or fusion partners need not be part of it. One block for each substance: values may come before it.

The chains behind the UniProt entries cited, without tags or fusion partners. Where a name states a change or a piece, a line headed by the entry shows the natural chain unless it says otherwise.
UniProt Q8TDI8: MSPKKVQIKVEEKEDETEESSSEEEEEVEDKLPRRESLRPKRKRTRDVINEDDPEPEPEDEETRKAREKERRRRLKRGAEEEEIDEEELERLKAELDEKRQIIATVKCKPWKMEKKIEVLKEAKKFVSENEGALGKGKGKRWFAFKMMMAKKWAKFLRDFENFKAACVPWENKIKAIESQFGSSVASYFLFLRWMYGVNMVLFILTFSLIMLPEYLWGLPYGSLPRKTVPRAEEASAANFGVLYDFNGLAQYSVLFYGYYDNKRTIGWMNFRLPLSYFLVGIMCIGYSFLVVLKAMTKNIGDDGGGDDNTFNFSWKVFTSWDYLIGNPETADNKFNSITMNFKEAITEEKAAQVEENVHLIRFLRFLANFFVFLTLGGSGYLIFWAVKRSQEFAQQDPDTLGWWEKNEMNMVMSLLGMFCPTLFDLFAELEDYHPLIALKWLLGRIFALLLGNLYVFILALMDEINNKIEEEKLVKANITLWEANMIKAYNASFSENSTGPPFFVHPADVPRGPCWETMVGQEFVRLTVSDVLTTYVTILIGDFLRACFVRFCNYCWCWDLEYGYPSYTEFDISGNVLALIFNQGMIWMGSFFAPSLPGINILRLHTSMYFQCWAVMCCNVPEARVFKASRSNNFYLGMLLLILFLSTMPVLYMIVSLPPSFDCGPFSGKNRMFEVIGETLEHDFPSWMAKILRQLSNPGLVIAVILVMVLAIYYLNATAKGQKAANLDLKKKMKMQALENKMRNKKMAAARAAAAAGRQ
UniProt Q93640: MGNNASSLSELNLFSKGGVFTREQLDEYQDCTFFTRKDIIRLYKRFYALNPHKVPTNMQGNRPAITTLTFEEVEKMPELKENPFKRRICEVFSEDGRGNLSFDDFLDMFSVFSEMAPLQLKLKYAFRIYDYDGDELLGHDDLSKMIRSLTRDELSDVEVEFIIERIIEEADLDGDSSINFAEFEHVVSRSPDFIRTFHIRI
UniProt O75838: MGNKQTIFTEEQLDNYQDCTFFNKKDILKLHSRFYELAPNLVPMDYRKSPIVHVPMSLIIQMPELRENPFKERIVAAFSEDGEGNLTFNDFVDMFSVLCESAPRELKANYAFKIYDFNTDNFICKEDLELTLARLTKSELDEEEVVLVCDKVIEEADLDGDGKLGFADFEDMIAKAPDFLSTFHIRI

Columns and labels:
[1] = biological target: T1, GFP-tagged TMC-1 N-terminal fragment (TMC-1-N175-GFP) (C. elegans) (UniProt D3KZG3); experiment: pull-down; GFP- or V5-tagged protein from lysate held on GFP-Trap or anti-V5 agarose beads, washed, then incubated overnight at 4°C with lysate of HEK293T cells; western blot; only the target purified
T1 sequence: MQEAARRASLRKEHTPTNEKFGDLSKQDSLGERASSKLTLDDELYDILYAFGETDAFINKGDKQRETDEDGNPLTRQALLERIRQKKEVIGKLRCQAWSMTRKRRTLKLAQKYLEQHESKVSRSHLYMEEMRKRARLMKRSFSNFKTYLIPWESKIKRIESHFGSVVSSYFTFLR

[2] = biological target: T2, C. elegans TMC-2 (FRET, CHO-K1 cells) (C. elegans) (UniProt Q11069); experiment: FRET or BRET; acceptor photobleaching FRET in transfected, fixed and immunostained CHO-K1 cells; donor EGFP, acceptor Alexa Fluor 555
T2 sequence: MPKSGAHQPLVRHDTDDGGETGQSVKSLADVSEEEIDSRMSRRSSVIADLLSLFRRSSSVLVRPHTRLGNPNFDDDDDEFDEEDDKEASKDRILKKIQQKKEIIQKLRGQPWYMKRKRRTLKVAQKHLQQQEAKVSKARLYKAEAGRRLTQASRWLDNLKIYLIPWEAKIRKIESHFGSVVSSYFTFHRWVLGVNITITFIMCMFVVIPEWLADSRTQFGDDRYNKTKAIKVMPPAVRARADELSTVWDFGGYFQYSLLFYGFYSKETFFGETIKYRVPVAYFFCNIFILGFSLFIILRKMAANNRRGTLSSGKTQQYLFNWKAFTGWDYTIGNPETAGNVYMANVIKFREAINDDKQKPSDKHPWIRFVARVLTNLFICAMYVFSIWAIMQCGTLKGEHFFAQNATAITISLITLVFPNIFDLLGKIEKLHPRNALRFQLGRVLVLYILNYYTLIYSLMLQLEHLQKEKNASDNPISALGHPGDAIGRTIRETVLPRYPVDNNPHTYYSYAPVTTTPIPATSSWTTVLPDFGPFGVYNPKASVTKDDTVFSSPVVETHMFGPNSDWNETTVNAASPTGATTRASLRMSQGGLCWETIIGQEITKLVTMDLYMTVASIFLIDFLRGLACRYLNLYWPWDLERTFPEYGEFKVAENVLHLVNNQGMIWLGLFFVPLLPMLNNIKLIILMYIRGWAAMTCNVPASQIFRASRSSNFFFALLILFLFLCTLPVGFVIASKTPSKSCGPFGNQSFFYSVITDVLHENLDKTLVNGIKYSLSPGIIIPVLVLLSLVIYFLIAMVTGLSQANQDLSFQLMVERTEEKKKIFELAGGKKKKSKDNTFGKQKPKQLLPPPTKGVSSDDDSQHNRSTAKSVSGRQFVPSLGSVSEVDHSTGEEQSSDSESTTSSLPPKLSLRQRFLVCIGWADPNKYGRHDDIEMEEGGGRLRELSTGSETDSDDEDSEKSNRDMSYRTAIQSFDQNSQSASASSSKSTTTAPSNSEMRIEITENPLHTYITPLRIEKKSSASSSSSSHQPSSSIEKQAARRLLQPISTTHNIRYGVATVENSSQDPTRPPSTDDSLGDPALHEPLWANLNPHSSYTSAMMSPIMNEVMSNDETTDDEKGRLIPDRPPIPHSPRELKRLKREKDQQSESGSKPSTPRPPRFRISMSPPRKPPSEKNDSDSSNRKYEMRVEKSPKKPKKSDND

[3] = biological target: T3, human TMC2 (FRET, CHO-K1 cells) (human) (UniProt Q8TDI7); experiment: as above
T3 sequence: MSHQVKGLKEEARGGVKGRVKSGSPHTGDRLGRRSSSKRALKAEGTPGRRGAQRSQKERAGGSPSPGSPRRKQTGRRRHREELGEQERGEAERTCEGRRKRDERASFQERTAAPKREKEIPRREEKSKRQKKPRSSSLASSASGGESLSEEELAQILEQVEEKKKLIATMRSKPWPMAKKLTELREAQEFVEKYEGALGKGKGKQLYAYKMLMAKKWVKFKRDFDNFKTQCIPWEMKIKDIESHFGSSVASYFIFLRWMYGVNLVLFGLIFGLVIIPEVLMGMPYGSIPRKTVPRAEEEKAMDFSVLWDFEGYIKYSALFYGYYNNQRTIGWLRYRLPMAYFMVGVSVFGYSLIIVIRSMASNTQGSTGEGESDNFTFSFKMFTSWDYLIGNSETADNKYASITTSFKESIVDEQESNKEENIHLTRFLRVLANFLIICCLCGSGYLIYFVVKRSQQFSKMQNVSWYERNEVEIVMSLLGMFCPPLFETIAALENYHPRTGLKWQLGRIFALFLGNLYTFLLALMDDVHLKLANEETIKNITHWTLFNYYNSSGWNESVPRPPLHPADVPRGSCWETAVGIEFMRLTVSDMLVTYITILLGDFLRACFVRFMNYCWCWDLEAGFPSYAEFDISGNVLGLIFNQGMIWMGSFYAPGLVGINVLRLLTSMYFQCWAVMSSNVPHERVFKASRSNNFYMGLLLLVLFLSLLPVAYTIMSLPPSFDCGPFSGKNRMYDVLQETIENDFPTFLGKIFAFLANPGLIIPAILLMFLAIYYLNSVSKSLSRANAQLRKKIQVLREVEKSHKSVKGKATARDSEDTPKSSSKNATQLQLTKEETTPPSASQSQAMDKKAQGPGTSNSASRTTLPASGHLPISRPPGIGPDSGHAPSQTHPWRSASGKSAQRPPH

[4] = biological target: T4, C. elegans TMC-1 (CHO-K1 cells) (C. elegans) (UniProt D3KZG3); experiment: as above
T4 sequence: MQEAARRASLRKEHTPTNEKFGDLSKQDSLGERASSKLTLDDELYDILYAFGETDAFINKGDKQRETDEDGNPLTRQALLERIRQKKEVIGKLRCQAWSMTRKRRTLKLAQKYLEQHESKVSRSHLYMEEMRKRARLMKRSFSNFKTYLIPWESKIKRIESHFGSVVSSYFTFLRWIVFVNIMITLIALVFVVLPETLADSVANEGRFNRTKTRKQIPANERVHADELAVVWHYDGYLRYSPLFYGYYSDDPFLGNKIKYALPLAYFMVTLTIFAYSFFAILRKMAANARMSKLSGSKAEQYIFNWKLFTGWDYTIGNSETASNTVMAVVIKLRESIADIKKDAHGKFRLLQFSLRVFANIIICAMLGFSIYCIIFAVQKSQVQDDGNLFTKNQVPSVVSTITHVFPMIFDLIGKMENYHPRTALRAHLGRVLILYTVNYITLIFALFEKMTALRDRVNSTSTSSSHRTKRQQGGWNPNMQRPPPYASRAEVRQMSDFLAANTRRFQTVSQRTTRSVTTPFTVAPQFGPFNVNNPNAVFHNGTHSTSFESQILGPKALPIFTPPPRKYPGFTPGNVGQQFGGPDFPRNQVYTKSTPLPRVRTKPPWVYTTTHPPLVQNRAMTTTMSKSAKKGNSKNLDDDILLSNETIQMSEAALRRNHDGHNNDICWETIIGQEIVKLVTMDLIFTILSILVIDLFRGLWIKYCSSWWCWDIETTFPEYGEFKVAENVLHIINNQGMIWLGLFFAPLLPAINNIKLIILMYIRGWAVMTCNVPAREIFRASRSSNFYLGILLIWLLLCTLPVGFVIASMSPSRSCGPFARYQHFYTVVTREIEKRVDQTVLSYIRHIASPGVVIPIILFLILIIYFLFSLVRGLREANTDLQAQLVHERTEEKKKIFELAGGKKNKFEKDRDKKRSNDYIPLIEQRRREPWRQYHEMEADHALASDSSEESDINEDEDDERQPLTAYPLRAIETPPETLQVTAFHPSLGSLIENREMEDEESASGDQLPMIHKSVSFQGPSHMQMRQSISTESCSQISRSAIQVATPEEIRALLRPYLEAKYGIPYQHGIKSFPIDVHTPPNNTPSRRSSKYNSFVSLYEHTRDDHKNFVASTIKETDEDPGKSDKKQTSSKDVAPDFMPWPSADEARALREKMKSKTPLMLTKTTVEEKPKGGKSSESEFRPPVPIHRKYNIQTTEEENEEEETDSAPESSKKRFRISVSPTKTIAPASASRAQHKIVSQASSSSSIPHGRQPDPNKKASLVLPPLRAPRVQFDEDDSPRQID

[5] = biological target: human TMC1 (FRET, CHO-K1 cells) (human) (UniProt Q8TDI8); experiment: as above
[6] = biological target: human TMC1 N terminus (coIP, HEK293T) (human) (UniProt Q8TDI8); experiment: co-IP; transfected HEK293T cells, lysis in 150 mM NaCl, 25 mM Tris-HCl, 1% NP-40, 1 mM EDTA, 5% glycerol, pH 7.4; GFP-Trap or anti-V5 agarose overnight at 4°C; western blot

binding [1]: binds
Substance: 3×FLAG-tagged CALM-1 (CALM-1-3×FLAG) (C. elegans)

binding [2]: binds
binding [3]: binds
binding [4]: binds
binding [5]: binds
Substance: C. elegans CALM-1 (FRET, CHO-K1 cells) (from UniProt Q93640)

binding [6]: binds
Substance: human CIB2 (coIP, HEK293T) (from UniProt O75838 1-187)
